Assay results taken from PubChem BioAssay AID651640 (Broad Institute, 2012).
Out of some 350,000 compounds screened, about 6,000 (1.7%) were called active. The inconclusive results got no clear call from the source; some entries with a clear call stand among them for comparison. Cut-off read from the data, not from the text of the source: active = CPE inhibition above about 20% (passing the limit was not always enough); inconclusive = no clear call, values can overlap the other calls; tested in BHK-21 cells.

experiment: protection of cells from dengue 2 killing – plate reader, single concentration, primary screen (AID 651640); conditions: DENV2-infected cells, cytopathic effect rescue, at 9.99 µM, stronger effect = higher value;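 note: 0% = median of neutral control wells and 100% = median of positive control wells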

Compound	CPE inhibition
C[C@@H]1CN([C@@H](C)CO)C(=O)c2cc(NC(=O)Nc3ccc4c(c3)OCO4)ccc2O[C@@H]1CN(C)CC1CCCCC1	inactive: -2.62%
C/C=C/c1ccc([C@H]2[C@@H](CO)N(S(=O)(=O)CC)[C@H]2CN(C)C(=O)CC)cc1	inconclusive: 21.5%
Cc1noc(C)c1S(=O)(=O)Nc1ccc2c(c1)CC(=O)N([C@H](C)CO)C[C@H](C)[C@H](CN(C)Cc1ccc3c(c1)OCO3)O2	active: 51.1%
CC(C)CC1C(=O)N(Cc2cn(Cc3ccco3)nn2)CCS(=O)(=O)N1Cc1ccc(-c2ccc(F)cc2)cc1 (configuration not stated)	inactive: -1.29%
CC(C)NC(=O)Nc1ccc2c(c1)CC(=O)N([C@H](C)CO)C[C@@H](C)[C@@H](CN(C)C(=O)NC(C)C)O2	inconclusive: 23.3%
C[C@@H]1CN([C@@H](C)CO)C(=O)c2cc(N(C)C)ccc2O[C@@H](C)CCCCO[C@@H]1CN(C)C(=O)Nc1ccc(F)cc1	inactive: -11%
C[C@@H]1CN([C@H](C)CO)C(=O)c2cc(C#CCN(C)C)cnc2O[C@H]1CN(C)C(=O)c1cnccn1	inactive: 2.1%
C[C@@H]1CCCCO[C@@H](CN(C)S(=O)(=O)c2ccccc2)[C@@H](C)CN([C@@H](C)CO)C(=O)c2cc(NC(=O)Nc3ccc(C(F)(F)F)cc3)ccc2O1	inconclusive: 30.7%
CC(=O)C1=C(O)C(=O)N(c2ccc(O)cc2)C1c1ccccc1Cl (configuration not stated)	inconclusive: 21%
COc1ccc2c3c([nH]c2c1)[C@@H](CO)N(S(C)(=O)=O)CC31CN(C(=O)c2ccccc2)C1	active: 23.1%
Cc1ccccc1CNC(=O)Cn1ccc2cc(S(=O)(=O)N3CCCCCC3)ccc21	inconclusive: 20.9%
Cc1noc(C)c1S(=O)(=O)Nc1ccc2c(c1)C(=O)N([C@H](C)CO)C[C@@H](C)[C@@H](CN(C)Cc1ccc(C(=O)Nc3ccccc3N)cc1)O2	inconclusive: 46.3%
C[C@H](CO)N1C[C@H](C)[C@H](CN(C)S(=O)(=O)c2ccccc2C#N)OCc2ccccc2-c2c(n(C)c3ccccc23)C1=O	inconclusive: 48%
Cc1noc(C)c1NC(=O)Nc1ccc2c(c1)C(=O)N([C@@H](C)CO)C[C@@H](C)[C@@H](CN(C)C(=O)Nc1c(C)noc1C)O2	inconclusive: 40.8%
CCS(=O)(=O)N1CC2(CN(C(=O)c3ccc(F)cc3)[C@H](CO)c3c2c2ccc(OC)cc2n3C)C1	active: 21.9%
CN1C(=O)c2cc(NC(=O)Nc3ccc(Cl)cc3)ccc2OC[C@@H]2O[C@@H](CC(=O)NCCN3CCCCC3)CC[C@@H]21	inactive: -7.04%
COc1ccc2cc(-c3[nH]ncc3CN3CCCN(c4ccccc4)CC3)ccc2c1	inactive: -3.44%
C[C@H]1CN([C@@H](C)CO)C(=O)c2cc(C#CCN(C)C)cnc2O[C@H]1CN(C)Cc1cccc(F)c1	inactive: -1.17%
CC(C)(C)C(=O)Nc1nnc(CC(=O)NCc2ccccc2)s1	inconclusive: 37.4%
CNS(=O)(=O)c1ccc2nc(NC(=O)/C=C/c3ccco3)sc2c1	inactive: -2.8%
COC(=O)c1cc(C)ccc1OCc1ccc([N+](=O)[O-])cc1	inconclusive: 39.5%
CN(C)C(=O)c1cc2c(c(-c3cccc(C4=CCCCC4)c3)n1)[C@H](CCO)N(S(C)(=O)=O)C2	inactive: -2.91%
COc1ccc(NC(=O)Nc2ccc3c(c2)C(=O)N([C@H](C)CO)C[C@H](C)[C@@H](CN(C)C)OCCCC[C@H](C)O3)cc1	inactive: 14.5%

14 neighbouring compounds out of the list so far, quoted:
Compound	CPE inhibition
CC(C)NC(=O)Nc1ccc2c(c1)CC(=O)N([C@H](C)CO)C[C@@H](C)[C@@H](CN(C)C(=O)NC(C)C)O2	inconclusive: 23.3%
C[C@@H]1CN([C@@H](C)CO)C(=O)c2cc(N(C)C)ccc2O[C@@H](C)CCCCO[C@@H]1CN(C)C(=O)Nc1ccc(F)cc1	inactive: -11%
C[C@@H]1CN([C@H](C)CO)C(=O)c2cc(C#CCN(C)C)cnc2O[C@H]1CN(C)C(=O)c1cnccn1	inactive: 2.1%
C[C@@H]1CCCCO[C@@H](CN(C)S(=O)(=O)c2ccccc2)[C@@H](C)CN([C@@H](C)CO)C(=O)c2cc(NC(=O)Nc3ccc(C(F)(F)F)cc3)ccc2O1	inconclusive: 30.7%
CC(=O)C1=C(O)C(=O)N(c2ccc(O)cc2)C1c1ccccc1Cl (configuration not stated)	inconclusive: 21%
COc1ccc2c3c([nH]c2c1)[C@@H](CO)N(S(C)(=O)=O)CC31CN(C(=O)c2ccccc2)C1	active: 23.1%
Cc1ccccc1CNC(=O)Cn1ccc2cc(S(=O)(=O)N3CCCCCC3)ccc21	inconclusive: 20.9%
Cc1noc(C)c1S(=O)(=O)Nc1ccc2c(c1)C(=O)N([C@H](C)CO)C[C@@H](C)[C@@H](CN(C)Cc1ccc(C(=O)Nc3ccccc3N)cc1)O2	inconclusive: 46.3%
C[C@H](CO)N1C[C@H](C)[C@H](CN(C)S(=O)(=O)c2ccccc2C#N)OCc2ccccc2-c2c(n(C)c3ccccc23)C1=O	inconclusive: 48%
Cc1noc(C)c1NC(=O)Nc1ccc2c(c1)C(=O)N([C@@H](C)CO)C[C@@H](C)[C@@H](CN(C)C(=O)Nc1c(C)noc1C)O2	inconclusive: 40.8%
CCS(=O)(=O)N1CC2(CN(C(=O)c3ccc(F)cc3)[C@H](CO)c3c2c2ccc(OC)cc2n3C)C1	active: 21.9%
CN1C(=O)c2cc(NC(=O)Nc3ccc(Cl)cc3)ccc2OC[C@@H]2O[C@@H](CC(=O)NCCN3CCCCC3)CC[C@@H]21	inactive: -7.04%
COc1ccc2cc(-c3[nH]ncc3CN3CCCN(c4ccccc4)CC3)ccc2c1	inactive: -3.44%
C[C@H]1CN([C@@H](C)CO)C(=O)c2cc(C#CCN(C)C)cnc2O[C@H]1CN(C)Cc1cccc(F)c1	inactive: -1.17%

Remaining list, next part:

Compound	CPE inhibition
CN(C)C(=O)c1ccc(-c2ccc([C@H]3[C@H]4CN(CCC(F)(F)F)CCCCN4[C@H]3CO)cc2)cc1	inconclusive: 29.2%
CCOC(=O)N1CCC(NCCNC(=O)c2ccc(F)c(F)c2)CC1	active: 21.1%
C[C@H]1CN([C@@H](C)CO)C(=O)c2cc(C#CCc3ccccc3)cnc2O[C@H]1CN(C)CC1CCOCC1	inconclusive: 20.9%
C[C@H](CO)N1C[C@H](C)[C@H](CN(C)C(=O)Nc2ccc(F)cc2)Oc2ccc(NC(=O)Cc3ccccc3)cc2C1=O	inconclusive: 21.4%
Cc1ccc(-c2nc3ccc(Cl)cn3c2Cc2ccsc2)cc1	inconclusive: 25.1%
CN(C(=O)c1c[nH]c(=O)cc1C(F)(F)F)c1ccc(Cl)c(Cl)c1	inconclusive: 23.4%
CCOC(=O)NC(=S)Nc1ccc(C(C)(C)C)cc1	inconclusive: 24.7%
O=C(C[C@@H]1CC[C@H]2[C@@H](COC[C@H](O)CN2C(=O)Nc2ccc(Cl)cc2)O1)NC1Cc2ccccc2C1	inconclusive: 39.9%
COc1ccc(S(=O)(=O)N2CCOC2CNC(=O)C(=O)NCCN2CCOCC2)cc1OC (configuration not stated)	inconclusive: 23.8%
COc1ccc(NC(=O)COc2coc(CN3CCc4ccccc43)cc2=O)cc1	inconclusive: 37.5%
O=C(C[C@H]1C[C@@H]2c3cc(NC(=O)C4CCOCC4)ccc3O[C@@H]2[C@H](CO)O1)NCc1ccccc1	inactive: 0.417%
CN1C(=O)c2cc(NC(=O)c3ccccc3)ccc2OC[C@H]2O[C@H](CC(=O)NC3CCCC3)CC[C@@H]21	inactive: 1.85%
O=C(C[C@H]1CC[C@@H]2NC[C@H](O)COC[C@H]2O1)NCCc1ccccc1	active: 24.9%
C[C@H](CO)N1C[C@H](C)[C@H](CN(C)CC2CCCCC2)OCCCC[C@H](C)Oc2ccc(NS(C)(=O)=O)cc2C1=O	inconclusive: 43.4%
C[C@@H]1CN([C@@H](C)CO)C(=O)c2cc(NC(=O)CCC(F)(F)F)ccc2O[C@@H](C)CCCCO[C@@H]1CN(C)C(=O)Nc1ccc(F)cc1	inconclusive: 37.3%
O=C(NNC(=S)Nc1ccc(Cl)cc1Cl)c1ccc(N2CCOCC2)c([N+](=O)[O-])c1	inconclusive: 23%
O=C(O)c1ccc(/C=N/Nc2ccc(Cl)nn2)cc1	inconclusive: 33.7%
CC1(C(=O)Nc2cccc3cccnc23)CCN1C(=O)Cc1ccc(Cl)cc1Cl (configuration not stated)	inconclusive: 43.9%
CC1CCCC(NC(=O)CCn2c(=S)oc3ccccc32)C1C (configuration not stated)	inconclusive: 24.6%
COc1ccc(NS(=O)(=O)c2ccc(Cl)c(NC(=O)c3cccnc3Cl)c2)cc1	inactive: 2.36%
O=C(Cn1c2c(c(=O)n3ncnc13)CCC2)N/N=C/c1ccc(Cl)cc1	inactive: -1.1%
O=C1COCCOCCOCC(=O)NCCN1	inactive: 7.53%
CN(C)c1ccc(/C=N/NC(=O)c2ccccc2Cl)cc1	inactive: -0.562%

Compound	CPE inhibition
COc1cccc(-c2ccc(C3[C@H]4CNC[C@@H]3N4C(=O)Nc3ccccc3OC)cc2)c1 (some centres not stated)	inconclusive: 34.1%
O=[N+]([O-])c1ccccc1S(=O)(=O)Nc1cccc(-c2ccc(N3CCOCC3)nn2)c1	inactive: 14.7%
C[C@H](CO)N1C[C@H](C)[C@@H](CN(C)CC2CC2)Oc2ccc(NS(=O)(=O)c3cn(C)cn3)cc2C1=O	active: 32.7%
O=C(c1cccc(F)c1)N1C[C@H]2[C@@H](c3ccccc31)[C@H](CO)N2C(=O)C1CCOCC1	inactive: -7.69%
CC1(C(=O)NCc2ccccc2)CSCC(=O)N1CCCN1CCOCC1 (configuration not stated)	inconclusive: 31.7%
CCCN=C1N(CC)C[C@@H]2[C@@H]3C(=O)N(C)C(=O)[C@@H]3[C@](CC)(C(=O)OC)N12	active: 27.9%
Cc1cccc(-c2ccc([C@H]3[C@@H](CO)N4C(=O)CN(C(=O)c5ccc6c(c5)OCO6)C[C@@H]34)cc2)c1	inactive: -2.34%
CCNC(=O)C[C@H]1CC[C@H]2[C@H](COc3ccc(NC(=O)Nc4ccccc4F)cc3C(=O)N2C)O1	inconclusive: 40.4%
O=C(Cc1ccc(Cl)cc1)Nc1ccccc1C(=O)N1CCCCC1	inconclusive: 44.9%
C[C@@H]1CN([C@H](C)CO)C(=O)c2cccc(NS(=O)(=O)c3cn(C)cn3)c2O[C@H]1CN(C)C(=O)Nc1ccc2c(c1)OCO2	active: 72.4%
Cc1noc(C)c1S(=O)(=O)Nc1ccc2c(c1)C(=O)N([C@H](C)CO)C[C@@H](C)[C@@H](CN(C)CC1CCCCC1)OCCCC[C@H](C)O2	inactive: 1.91%
CCCNC(=O)N1CC2(C1)[C@H](c1ccccc1)[C@@H](CO)N2Cc1ccccc1	inactive: -5.2%
COc1ccc2c3c(n(C)c2c1)[C@H](CO)N(C(=O)c1cccc(F)c1)CC31CN(C(=O)c2cccc(F)c2)C1	active: 46.4%
Cc1cccc(-c2ccc([C@H]3[C@H](CO)N4CCCCN(S(=O)(=O)c5cn(C)cn5)C[C@@H]34)cc2)c1	inactive: -11.9%
C[C@@H]1CN([C@H](C)CO)C(=O)c2cc(NC(=O)NC3CCCCC3)ccc2O[C@H]1CN(C)Cc1ccc(Oc2ccccc2)cc1	inconclusive: 25%
COC(=O)C[C@H]1C[C@H]2c3cc(N)ccc3O[C@H]2[C@H](CO)O1	inconclusive: 32.2%
C[C@H](CO)N1C[C@H](C)[C@H](CN(C)C(=O)Nc2cccc3ccccc23)OCCCC[C@H](C)Oc2ccc(NS(=O)(=O)c3cn(C)cn3)cc2C1=O	active: 103%
C[C@H](CO)N1C[C@H](C)[C@@H](CN(C)S(=O)(=O)c2cccs2)OCCCC[C@H](C)Oc2ccc(NC(=O)NC3CCCCC3)cc2C1=O	inconclusive: 22.1%
CCC(=O)N1CCC2(CC1)CN[C@@H](CO)c1c2c2ccc(OC)cc2n1C	inconclusive: 20.9%
C[C@@H]1CCCCO[C@@H](CN(C)CC2CC2)[C@H](C)CN([C@H](C)CO)C(=O)c2cc(NC(=O)Nc3ccccc3)ccc2O1	active: 40.9%
CCCCNC(=O)N1c2ccccc2CC1C (configuration not stated)	inactive: -10.7%
